# Results are given in words; binding and its absence hold for the method and conditions named. Some results given as binding are weak or reduced against the parent protein; the word gives no strength.
# By UniProt entry, the sequences of proteins in these tests, tags left out. Where a name states a change or a piece, a line headed by the entry shows the natural chain unless it says otherwise. Residues count along the entry.
# UniProt Q01973: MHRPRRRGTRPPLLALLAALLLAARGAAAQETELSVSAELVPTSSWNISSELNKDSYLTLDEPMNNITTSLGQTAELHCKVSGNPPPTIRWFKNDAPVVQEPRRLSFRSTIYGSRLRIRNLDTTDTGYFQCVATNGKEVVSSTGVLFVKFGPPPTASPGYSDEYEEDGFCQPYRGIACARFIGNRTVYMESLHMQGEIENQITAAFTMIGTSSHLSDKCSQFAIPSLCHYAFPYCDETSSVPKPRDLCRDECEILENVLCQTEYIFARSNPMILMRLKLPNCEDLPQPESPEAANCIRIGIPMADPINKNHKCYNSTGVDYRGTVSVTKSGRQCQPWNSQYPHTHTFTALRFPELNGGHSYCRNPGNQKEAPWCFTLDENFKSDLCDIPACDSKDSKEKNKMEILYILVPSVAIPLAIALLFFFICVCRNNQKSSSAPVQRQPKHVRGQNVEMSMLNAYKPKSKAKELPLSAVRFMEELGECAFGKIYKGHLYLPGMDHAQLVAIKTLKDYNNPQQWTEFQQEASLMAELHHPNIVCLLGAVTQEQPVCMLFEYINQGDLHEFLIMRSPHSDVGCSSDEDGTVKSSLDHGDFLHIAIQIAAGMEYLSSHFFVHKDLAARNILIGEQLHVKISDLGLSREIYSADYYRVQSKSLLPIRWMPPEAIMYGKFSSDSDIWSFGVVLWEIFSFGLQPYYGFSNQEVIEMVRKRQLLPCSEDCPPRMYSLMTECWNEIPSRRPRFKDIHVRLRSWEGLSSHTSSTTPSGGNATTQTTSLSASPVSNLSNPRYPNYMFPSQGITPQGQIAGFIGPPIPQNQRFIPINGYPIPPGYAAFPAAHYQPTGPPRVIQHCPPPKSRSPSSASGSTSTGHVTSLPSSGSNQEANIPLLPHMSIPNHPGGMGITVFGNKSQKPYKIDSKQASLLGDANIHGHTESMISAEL
# ROR1 on cells: residues 30-937 of Q01973
# ROR1 antigen: residues 30-406 of Q01973
# UniProt Q07011: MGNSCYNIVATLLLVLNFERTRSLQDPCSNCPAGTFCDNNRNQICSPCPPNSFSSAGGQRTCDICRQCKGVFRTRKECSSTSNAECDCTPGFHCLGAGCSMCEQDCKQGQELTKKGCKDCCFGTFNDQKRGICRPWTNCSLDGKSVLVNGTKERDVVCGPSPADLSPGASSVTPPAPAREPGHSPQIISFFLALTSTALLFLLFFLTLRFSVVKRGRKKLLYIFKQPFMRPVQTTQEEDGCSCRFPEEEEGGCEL
# B1: 3C5 (antibody, V domains shown)
# VH: EVKLVESGGGLVKPGGSLKLSCAASGFTFSSYAMSWVRQTPEKRLEWVSSISSGGTTYYPDTVKGRFTISRDNARNILYLQMSSLRSEDTAMYYCARDSLYYGSSLYYAMDYWGQGTSVTVSS
# VL: DIKMTQSPSSMYASLGERVSITCRASQDIYSYLSWFQQKPGKSPKTLIYRANRLVDGVPSRFSGSGSGQDYSLTISSLEYEDMGIYYCLQYDEFPYTFGGGTKLEIK
# B2: 8F2 (antibody, V domains shown)
# VH: EVQLQQSGPELVKPGASVKMSCKASGYTFTTYVMHWVKQKPGQGLEWIGYINPYNGGIRYNEKFKGKATLTSDKSSSTAYMELSSLTSEDSAVYYCARRERGVYYGMDEWGQGTSVTVSS
# VL: DVVMTQTPLTLSVTIGQPASISCKSSQSLLHSNGKTYLNWLLQRPGQSPNLLIYLVSKLESGVPDRFSGSGSGTDFTLKISRVEAEDLGVYYCLQATYFPYTFGSGTKLEIK
# B3: humanized 3C5 anti-ROR1 mAb (antibody, V domains shown)
# VH: EVQLVESGGGLVKPGGSLRLSCAASGFTFSSYAMSWVRQAPGKRLEWVSSISSGGTTYYPDTVKGRFTISRDNAKNSLYLQMNSLRAEDTAVYYCARDALYYGSSLYYAMDYWGQGTLVTVSS
# VL: DIQMTQSPSSLSASVGDRVTITCRASQDIYSYLSWFQQKPGKAPKTLIYRANRLVDAVPSRFSGSGSGQDYTLTISSLQPEDFATYYCLQYDEFPYTFGQGTKLEIK
# B4: 4-1BB VHH (VHH)
# VHH: QVQLQESGGGLVQPGGSLRLSCAASGYTYSSNCMGWFRQAPGKGLEGVAVICTGGGSPSYADSVKGRFTISRDNAKNTLYLQMNSLRAEDTAVYYCAADLLRAGTPLSSYEFNYWGQGTLVTVSS
# Key:
# ROR1 antigen [1] = biological target: ROR1 antigen (UniProt Q01973); experiment: Octet, ROR1-His (10 ug/ml) on HIS1K sensor, antibodies at 10 ug/mL
# ROR1 antigen [2] = biological target: ROR1 antigen (UniProt Q01973); experiment: epitope binning by Octet (BLI)
# ROR1 on cells [3] = biological target: ROR1 on cells (UniProt Q01973); experiment: flow cytometry, cellular binding to ROR1, before and after humanization
# ROR1 on cells [4] = biological target: ROR1 on cells (UniProt Q01973); experiment: flow cytometry (gMFI) on A549 cells
# 4-1BB on cells (human) = 4-1BB on cells (human) (UniProt Q07011); experiment: flow cytometry (gMFI) on HEK293-h4-1BB cells
binder,measurement,setting,value
B1,binding,ROR1 antigen [1],binds
same,binding,ROR1 antigen [2],binds
B2,binding,ROR1 antigen [1],binds
same,binding,ROR1 antigen [2],binds
B3,binding,ROR1 on cells [3],binds
same,binding,ROR1 on cells [4],binds
B4,binding,4-1BB on cells (human),binds

# — patent publication US20260078196A1
